From the supplement of paper PMC10849652
Some of the results follow.

Chains of the proteins cited; added tags and fusions are not shown. Lines headed by an entry give the natural chain unless they say otherwise; changes in a name come on top.
UniProt Q96I45: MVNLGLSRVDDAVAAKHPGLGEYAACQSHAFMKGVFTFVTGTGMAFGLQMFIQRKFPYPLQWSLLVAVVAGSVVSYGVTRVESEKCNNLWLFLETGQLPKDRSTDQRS
UniProt Q6PI78: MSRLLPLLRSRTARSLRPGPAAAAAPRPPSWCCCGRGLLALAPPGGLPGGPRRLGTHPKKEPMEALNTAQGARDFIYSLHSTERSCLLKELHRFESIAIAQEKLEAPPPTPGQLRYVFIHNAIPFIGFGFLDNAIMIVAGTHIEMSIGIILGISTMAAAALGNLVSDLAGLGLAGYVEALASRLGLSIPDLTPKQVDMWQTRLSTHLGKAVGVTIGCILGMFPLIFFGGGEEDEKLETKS
UniProt Q8NBN3: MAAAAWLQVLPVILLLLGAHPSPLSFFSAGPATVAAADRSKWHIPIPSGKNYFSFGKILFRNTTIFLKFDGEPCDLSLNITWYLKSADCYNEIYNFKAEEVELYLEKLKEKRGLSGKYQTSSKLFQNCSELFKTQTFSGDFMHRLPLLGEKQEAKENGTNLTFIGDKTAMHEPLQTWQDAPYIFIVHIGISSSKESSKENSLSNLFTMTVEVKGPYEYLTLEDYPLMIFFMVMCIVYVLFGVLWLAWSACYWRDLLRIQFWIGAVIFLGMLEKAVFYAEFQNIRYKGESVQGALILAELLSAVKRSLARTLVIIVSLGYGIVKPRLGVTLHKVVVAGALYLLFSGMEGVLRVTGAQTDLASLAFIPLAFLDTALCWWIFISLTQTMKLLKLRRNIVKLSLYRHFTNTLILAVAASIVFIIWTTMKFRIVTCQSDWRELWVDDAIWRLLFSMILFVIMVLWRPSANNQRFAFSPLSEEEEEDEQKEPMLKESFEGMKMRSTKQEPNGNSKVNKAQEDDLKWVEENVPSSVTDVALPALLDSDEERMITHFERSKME
UniProt Q9Y490: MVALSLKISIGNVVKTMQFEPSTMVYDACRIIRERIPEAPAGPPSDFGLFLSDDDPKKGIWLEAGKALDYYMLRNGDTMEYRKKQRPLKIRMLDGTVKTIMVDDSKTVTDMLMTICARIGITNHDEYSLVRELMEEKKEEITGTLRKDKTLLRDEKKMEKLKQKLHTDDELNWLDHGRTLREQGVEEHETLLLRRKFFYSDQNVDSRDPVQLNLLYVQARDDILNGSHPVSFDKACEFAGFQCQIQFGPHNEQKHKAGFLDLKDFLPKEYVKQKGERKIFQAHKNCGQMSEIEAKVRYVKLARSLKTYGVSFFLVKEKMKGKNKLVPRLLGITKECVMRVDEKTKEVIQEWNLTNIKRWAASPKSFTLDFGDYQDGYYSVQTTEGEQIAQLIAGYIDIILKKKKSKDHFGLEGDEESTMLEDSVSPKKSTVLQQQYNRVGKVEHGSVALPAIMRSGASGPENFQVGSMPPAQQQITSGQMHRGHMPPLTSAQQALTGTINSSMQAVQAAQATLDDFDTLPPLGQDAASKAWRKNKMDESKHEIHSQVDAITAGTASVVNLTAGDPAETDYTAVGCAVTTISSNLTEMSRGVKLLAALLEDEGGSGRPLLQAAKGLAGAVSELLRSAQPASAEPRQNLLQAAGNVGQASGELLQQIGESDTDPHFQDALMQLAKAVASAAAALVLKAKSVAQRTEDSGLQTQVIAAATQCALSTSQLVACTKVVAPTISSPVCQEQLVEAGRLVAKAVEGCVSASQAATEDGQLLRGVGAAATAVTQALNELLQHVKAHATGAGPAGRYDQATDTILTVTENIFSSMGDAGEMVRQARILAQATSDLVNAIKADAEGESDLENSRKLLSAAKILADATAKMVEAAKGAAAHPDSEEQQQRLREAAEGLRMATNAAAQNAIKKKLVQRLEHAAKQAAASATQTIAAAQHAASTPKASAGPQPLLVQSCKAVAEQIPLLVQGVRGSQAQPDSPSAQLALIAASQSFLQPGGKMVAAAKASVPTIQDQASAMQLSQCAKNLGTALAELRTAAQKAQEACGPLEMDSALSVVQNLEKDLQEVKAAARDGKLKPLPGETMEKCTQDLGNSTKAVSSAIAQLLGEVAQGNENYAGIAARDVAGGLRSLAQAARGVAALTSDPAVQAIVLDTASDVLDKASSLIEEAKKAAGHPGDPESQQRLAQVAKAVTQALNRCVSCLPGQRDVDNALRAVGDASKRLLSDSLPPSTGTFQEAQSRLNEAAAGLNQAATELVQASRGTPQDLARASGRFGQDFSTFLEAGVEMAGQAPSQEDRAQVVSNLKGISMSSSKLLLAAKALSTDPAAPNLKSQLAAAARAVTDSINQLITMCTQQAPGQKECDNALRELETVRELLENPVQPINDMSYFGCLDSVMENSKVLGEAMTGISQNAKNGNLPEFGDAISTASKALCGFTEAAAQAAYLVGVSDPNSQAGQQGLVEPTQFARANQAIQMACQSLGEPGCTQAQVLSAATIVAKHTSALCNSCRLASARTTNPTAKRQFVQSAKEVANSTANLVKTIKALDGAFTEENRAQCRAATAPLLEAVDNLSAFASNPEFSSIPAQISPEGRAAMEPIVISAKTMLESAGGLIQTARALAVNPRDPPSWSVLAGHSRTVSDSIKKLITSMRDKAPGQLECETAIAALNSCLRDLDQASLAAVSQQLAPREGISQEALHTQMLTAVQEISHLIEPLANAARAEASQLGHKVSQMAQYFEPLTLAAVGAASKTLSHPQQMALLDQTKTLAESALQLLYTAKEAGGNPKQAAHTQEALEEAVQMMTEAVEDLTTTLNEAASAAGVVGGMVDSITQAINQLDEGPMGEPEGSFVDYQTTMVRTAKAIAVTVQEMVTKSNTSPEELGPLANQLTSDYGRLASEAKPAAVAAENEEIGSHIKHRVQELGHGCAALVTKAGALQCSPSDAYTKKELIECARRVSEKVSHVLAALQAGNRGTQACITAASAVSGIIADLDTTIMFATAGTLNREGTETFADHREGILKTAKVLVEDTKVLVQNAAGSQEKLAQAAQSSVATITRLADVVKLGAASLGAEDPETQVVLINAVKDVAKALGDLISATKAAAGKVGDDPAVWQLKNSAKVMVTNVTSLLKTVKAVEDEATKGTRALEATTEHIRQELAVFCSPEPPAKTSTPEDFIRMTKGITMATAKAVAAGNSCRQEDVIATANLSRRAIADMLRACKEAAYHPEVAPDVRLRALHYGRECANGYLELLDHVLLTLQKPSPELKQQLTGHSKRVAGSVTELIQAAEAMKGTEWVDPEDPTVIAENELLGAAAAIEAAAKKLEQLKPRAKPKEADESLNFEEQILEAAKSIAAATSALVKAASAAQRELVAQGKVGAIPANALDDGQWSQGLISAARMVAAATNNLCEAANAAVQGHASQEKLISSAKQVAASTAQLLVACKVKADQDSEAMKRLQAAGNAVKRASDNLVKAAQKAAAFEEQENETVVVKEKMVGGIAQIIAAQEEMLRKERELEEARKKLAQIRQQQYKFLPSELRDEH
UniProt O14763, whole entry, looked up: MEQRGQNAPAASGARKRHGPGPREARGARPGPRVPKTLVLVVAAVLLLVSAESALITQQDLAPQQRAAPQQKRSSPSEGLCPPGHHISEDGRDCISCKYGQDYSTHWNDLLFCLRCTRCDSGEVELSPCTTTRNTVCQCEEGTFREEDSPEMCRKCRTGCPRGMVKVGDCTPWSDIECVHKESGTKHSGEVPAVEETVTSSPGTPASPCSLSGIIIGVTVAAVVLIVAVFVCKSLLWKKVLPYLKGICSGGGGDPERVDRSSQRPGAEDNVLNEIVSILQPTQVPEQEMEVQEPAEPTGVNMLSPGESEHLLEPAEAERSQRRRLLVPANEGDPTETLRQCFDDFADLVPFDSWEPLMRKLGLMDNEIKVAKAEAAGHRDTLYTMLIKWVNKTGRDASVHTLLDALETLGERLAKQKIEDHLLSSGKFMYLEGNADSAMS
UniProt Q9NYL9: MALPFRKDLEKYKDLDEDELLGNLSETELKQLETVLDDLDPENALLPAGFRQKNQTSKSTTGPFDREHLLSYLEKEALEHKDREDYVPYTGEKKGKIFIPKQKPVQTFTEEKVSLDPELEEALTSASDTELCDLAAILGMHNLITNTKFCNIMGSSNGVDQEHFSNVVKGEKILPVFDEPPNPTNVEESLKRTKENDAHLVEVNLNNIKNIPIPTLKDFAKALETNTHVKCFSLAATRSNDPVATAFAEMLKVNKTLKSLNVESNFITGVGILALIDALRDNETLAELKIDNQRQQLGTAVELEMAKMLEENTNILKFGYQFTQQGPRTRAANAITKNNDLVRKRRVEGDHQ
UniProt Q9NV96: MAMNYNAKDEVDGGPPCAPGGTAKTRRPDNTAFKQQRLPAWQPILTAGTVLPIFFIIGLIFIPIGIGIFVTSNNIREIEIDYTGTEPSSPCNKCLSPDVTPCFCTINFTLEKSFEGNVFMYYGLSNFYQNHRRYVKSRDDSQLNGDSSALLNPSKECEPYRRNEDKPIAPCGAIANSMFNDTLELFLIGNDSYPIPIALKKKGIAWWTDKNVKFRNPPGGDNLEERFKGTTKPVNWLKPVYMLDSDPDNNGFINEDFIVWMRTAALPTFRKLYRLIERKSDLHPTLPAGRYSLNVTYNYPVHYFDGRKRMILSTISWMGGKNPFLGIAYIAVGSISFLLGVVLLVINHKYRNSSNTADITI
UniProt Q96MH6: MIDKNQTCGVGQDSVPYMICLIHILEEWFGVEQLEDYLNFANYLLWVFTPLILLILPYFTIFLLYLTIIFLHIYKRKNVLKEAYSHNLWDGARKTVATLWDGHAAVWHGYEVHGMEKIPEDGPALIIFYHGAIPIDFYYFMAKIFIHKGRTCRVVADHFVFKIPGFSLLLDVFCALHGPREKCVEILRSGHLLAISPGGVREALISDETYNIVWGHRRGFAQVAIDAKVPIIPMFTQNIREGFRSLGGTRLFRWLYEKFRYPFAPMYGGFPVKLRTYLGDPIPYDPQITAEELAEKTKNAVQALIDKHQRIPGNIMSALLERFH
UniProt Q9UM00: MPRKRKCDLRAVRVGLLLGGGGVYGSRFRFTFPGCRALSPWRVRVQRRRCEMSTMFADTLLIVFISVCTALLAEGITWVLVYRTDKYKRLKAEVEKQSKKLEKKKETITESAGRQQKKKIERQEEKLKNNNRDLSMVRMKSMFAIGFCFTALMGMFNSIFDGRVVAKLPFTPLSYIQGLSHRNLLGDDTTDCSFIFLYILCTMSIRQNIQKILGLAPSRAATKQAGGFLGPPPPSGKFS
UniProt P42166: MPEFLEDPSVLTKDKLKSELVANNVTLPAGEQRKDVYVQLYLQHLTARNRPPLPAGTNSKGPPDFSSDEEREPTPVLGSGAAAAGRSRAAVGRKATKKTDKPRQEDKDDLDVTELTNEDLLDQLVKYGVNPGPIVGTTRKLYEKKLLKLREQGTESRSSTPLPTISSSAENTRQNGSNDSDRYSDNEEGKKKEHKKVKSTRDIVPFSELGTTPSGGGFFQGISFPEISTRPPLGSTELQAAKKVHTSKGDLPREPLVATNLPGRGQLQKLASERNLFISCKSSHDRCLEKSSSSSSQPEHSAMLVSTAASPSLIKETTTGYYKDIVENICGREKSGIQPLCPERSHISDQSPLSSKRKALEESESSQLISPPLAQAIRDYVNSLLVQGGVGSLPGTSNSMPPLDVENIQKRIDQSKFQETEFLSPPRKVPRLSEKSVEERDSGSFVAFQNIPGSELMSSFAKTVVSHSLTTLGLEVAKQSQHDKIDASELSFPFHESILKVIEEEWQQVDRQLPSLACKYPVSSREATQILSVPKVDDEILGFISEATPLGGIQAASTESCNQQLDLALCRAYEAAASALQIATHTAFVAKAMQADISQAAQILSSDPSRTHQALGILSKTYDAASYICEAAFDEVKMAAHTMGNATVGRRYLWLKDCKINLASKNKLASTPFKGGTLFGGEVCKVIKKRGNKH
UniProt P63313: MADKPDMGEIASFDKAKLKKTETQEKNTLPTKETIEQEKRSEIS
UniProt Q9NWD8: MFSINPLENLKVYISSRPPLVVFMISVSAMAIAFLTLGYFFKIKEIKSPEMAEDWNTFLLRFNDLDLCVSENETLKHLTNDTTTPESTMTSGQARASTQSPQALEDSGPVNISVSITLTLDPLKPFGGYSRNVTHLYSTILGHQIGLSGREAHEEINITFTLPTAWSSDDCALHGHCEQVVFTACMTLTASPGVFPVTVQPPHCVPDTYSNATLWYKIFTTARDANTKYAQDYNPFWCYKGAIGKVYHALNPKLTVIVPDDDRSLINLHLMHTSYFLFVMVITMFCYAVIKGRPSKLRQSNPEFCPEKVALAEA
UniProt Q96A57: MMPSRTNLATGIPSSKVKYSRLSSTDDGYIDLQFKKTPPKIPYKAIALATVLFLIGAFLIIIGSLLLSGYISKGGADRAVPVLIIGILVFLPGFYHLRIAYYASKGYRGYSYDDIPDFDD
UniProt Q13445: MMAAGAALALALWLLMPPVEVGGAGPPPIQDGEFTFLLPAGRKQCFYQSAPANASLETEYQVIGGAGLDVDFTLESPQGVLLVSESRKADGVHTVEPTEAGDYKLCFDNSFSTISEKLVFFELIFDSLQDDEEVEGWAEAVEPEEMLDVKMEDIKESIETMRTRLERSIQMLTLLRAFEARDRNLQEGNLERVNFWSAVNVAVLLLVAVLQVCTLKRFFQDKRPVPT

Each target was assayed with CS(=O)(=O)N1CCN(Cc2cc3nc(-c4cccc5[nH]ncc45)nc(N4CCOCC4)c3s2)CC1 [pictilisib] (assay: log2 fold change, soluble protein after heating vs DMSO (PISA); higher = thermal stabilisation; K562 cells, 10 uM, 30 min; active = over 0.2 and 3.5 SD of the protein, either way, in both replicates (recomputed)).
Method in brief: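 K562 cells at 2×10^6 cells/mL were exposed to 10 μM compound for 30 min, then aliquots were heated for 3 min across 48°C-58°C, pooled, and extracted in PBS containing 0.5% NP-40 at 4°C. The supernatant after 21,000xg for 90 min was taken as soluble protein and measured by TMTpro 16plex LC-MS/MS with channel sums equalised. Thermal stability is reported relative to control samples, with values from duplicates. Fold changes are given on a log2 scale.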
For TMEM245 (UniProt Q9H330), the log2 fold change was inactive: 0.06.
In the case of TMEM167A (UniProt Q8TBQ9), the log2 fold change was inactive: 0.038.
With TMOD2 (UniProt Q9NZR1) the log2 fold change was inactive: 0.06.
For TMED4 (UniProt Q7Z7H5), the log2 fold change was inactive: 0.077.
For TMEM14C (UniProt Q9P0S9), the log2 fold change was inactive: 0.023.
TLN2 (UniProt Q9Y4G6) was tested, and the log2 fold change was inactive: -0.056.
TMEM109 (UniProt Q9BVC6) was tested, and the log2 fold change was inactive: 0.049.
For TM2D3 (UniProt Q9BRN9), the log2 fold change was inactive: 0.029.
In the case of TMEM141 (UniProt Q96I45), the log2 fold change was inactive: -0.129.
For TMEM65 (UniProt Q6PI78), the log2 fold change was inactive: 0.02.
In the case of TMEM87A (UniProt Q8NBN3), the log2 fold change was inactive: 0.095.
With TMEM33 (UniProt P57088) the log2 fold change was inactive: -0.004.
For TLN1 (UniProt Q9Y490), the log2 fold change was inactive: 0.002.
For TNFRSF10B (UniProt O14763), the log2 fold change was inactive: 0.101.
TMEM160 (UniProt Q9NX00) was tested, and the log2 fold change was inactive: 0.253.
In the case of TM9SF3 (UniProt Q9HD45), the log2 fold change was inactive: 0.092.
With TMPO isoform 2 (UniProt P42167) the log2 fold change was inactive: 0.148.
In the case of TMOD3 (UniProt Q9NYL9), the log2 fold change was inactive: -0.032.
TMEM222 (UniProt Q9H0R3) was tested, and the log2 fold change was inactive: -0.152.
TMEM185B (UniProt Q9H7F4) was tested, and the log2 fold change was inactive: 0.101.
TMA16 (UniProt Q96EY4) was tested, and the log2 fold change was inactive: -0.104.
For TMEM30A (UniProt Q9NV96), the log2 fold change was inactive: -0.031.
For TMEM68 (UniProt Q96MH6), the log2 fold change was inactive: 0.07.
TMCO1 (UniProt Q9UM00) was tested, and the log2 fold change was inactive: -0.021.
In the case of TMED2 (UniProt Q15363), the log2 fold change was inactive: 0.028.
For TMX4 (UniProt Q9H1E5), the log2 fold change was inactive: 0.038.
For TMEM168 (UniProt Q9H0V1), the log2 fold change was inactive: -0.009.
With TMPO (UniProt P42166) the log2 fold change was inactive: -0.044.
In the case of TMEM259 (UniProt Q4ZIN3), the log2 fold change was inactive: 0.004.
TMSB10 (UniProt P63313) was tested, and the log2 fold change was inactive: 0.125.
In the case of TMEM248 (UniProt Q9NWD8), the log2 fold change was inactive: 0.084.
With TMED3 (UniProt Q9Y3Q3) the log2 fold change was inactive: 0.063.
In the case of TMEM209 (UniProt Q96SK2), the log2 fold change was inactive: -0.005.
With TMEM230 isoform 2 (UniProt Q96A57) the log2 fold change was inactive: -0.021.
For TMED1 (UniProt Q13445), the log2 fold change was inactive: 0.062.
TMPO (UniProt P42167) was tested, and the log2 fold change was inactive: -0.054.
With TMEM62 (UniProt Q0P6H9) the log2 fold change was inactive: 0.022.
For TMEM11 (UniProt P17152), the log2 fold change was inactive: 0.07.
